Laboratory results: publication PMC1440875
No constants are given. Whether binding was seen depends on the method and setting. Some entries that bind do so weakly or less than the wild type.

Protein sequences, listed by entry. Tags and fused reporters are not part of them. Residues count along the entry.
UniProt P01522, residues 46-73: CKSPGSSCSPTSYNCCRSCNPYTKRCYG

Target: N-type calcium channels (rat (endogenous in brain)) (UniProt Q02294)
Experiment: radioligand binding; only the binder purified

Substance: ω-conotoxin GVIA (from UniProt P01522 46-73) (peptide)
- binding: binds
